Values quoted from earlier work as cited in patent US20120115958A1, “LIQUID PHARMACEUTICAL FORMULATION CONTAINING PARACETAMOL” (Aziende Chim. Riun. Ang. Franc. A.C.R.A.F. S.p.A., priority 2008, published 2012).

Details: at 20° C.

## CC(=O)Nc1ccc(O)cc1 [paracetamol]
  Solubility in water: 1.4 g/100 ml
